Measured values published in patent publication US20140011822A1, “METHODS AND MATERIALS FOR REDUCING VENOUS STENOSIS FORMATION OF AN ARTERIOVENOUS FISTULA OR GRAFT” (priority 2011, published 2014).
Entries after “also recorded” stand apart in the source; their conditions may differ. At least one structure is not confirmed: it was looked up by name or label, or the drawing left a doubt.

What was measured:
Assay type in all cases: in vivo, mice
collagen 1 and 3 = experiment: Picrosirius red staining of outflow vein, simvastatin; settings: day 14 and day 28; qualitative; vs control
MMP-2 = experiment: RT-PCR for MMP-2 at outflow vein, simvastatin; settings: vs control
[1] = tested on: outflow vein of arteriovenous fistula; experiment: Histomorphometry of outflow vein (neointima, media/adventitia, lumen area, cell density), simvastatin; settings: vs control
Experimental: Animals were housed at 22° C. temperature, 41% relative humidity, and 12-/12-hour light/dark cycles. Animals were allowed access to water and food ad libitum. […] Sixty-eight male C57BL/6 mice (Jackson Laboratories, Bar Harbor, Me.) weighing 25-30 grams were used for the present study (FIG. 18). Chronic kidney disease was created by surgical removal of the right kidney accompanied by ligation of the arterial blood supply to the upper pole of the left kidney as described elsewhere (Misra et al., J. Vasc. Interv. Radiol., 21:1255-1261 (2010); see, also, FIG. 18A). Three weeks after nephrectomy, the animals were started on simvastatin (40 mg/kg administered i.p. three times per week) or PBS (equal amount of volume used for simvastatin i.p. controls). […] Serum BUN and creatinine were measured by removing blood from the tail vein at baseline (before nephrectomy), at AVF creation, and at the time of sacrifice. […]
Morphometric analysis was performed as described elsewhere (Misra et al., Kidney Int., 68:2890-2900 (2005); and Misra et al., Am. J. Physiol. Heart Circ. Physiol., 294:H2219-2230 (2008)). […] Typically, 2 to 3 sections per animal for each group (simvastatin and controls) and time point (day 14 and day 28) were photographed and then quantified using KS 400 (Carl Zeiss, Inc., Thornwood, N.Y.) semiquantitative program.

[2] = Serum BUN and creatinine after nephrectomy (simvastatin); settings: simvastatin 40 mg/kg i.p.

CCC(C)(C)C(=O)O[C@H]1C[C@@H](C)C=C2C=C[C@H](C)[C@H](CC[C@@H]3C[C@@H](O)CC(=O)O3)[C@H]21 [simvastatin]
intensity of Sirrus red staining (collagen 1 and 3): reduction in the intensity | average gene expression of MMP-2 (MMP-2): not significantly different | average area of the neointima ([1]; day 28 normal (animals without nephrectomy)): No difference | average lumen vessel area ([1]; day 28 normal): No difference | average serum creatinine ([2]; 8-weeks following nephrectomy): had decreased; also recorded: significant decrease | average BUN ([2]; 8-weeks post-nephrectomy): had decreased; also recorded: significant decrease
